Experimental data from PubChem BioAssay AID2685 (National Center for Advancing Translational Sciences (NCATS), 2010).
The list shows a part of the results. Shown are side measurements of this screen, not its main read-out; they come without a call. Compounds called inactive in the main read-out are mostly missing here. Potencies come from curve fits of mixed quality, noted in brackets.

Test: qHTS Assay for Lipid Storage Modulators in Drosophila S3 Cells;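 for cell number change: cells counted by Cell Tracker Red CMTPX staining in the red channel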
Conditions: BODIPY lipid droplet fluorescence, 18-24 h; for cell number change: measured here: cell count max response, cells fed with added oleic acid
Summary of the method: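 Laser-scanning cytometry quantifies lipid droplet accumulation (500–530 nm total intensity; droplet/cell object ratio) in oleic acid-fed (400 uM added) Drosophila S3 cells treated with a concentration series. 20 uM Triacsin C defined 100% inhibition.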

[1] = measured here: lipid fluorescence (Fed channel) AC50, cells fed with added oleic acid
[2] = measured here: cell number channel AC50, cells fed with added oleic acid

SMILES | cell number change [%] | AC50 [1] | AC50 [2]
CCC(NC(=S)NC1CCCCC1)c1ccccc1 (centres undefined) | 20.9 | 7.31 µM [rising, single point] | 
Cc1ccc2[nH]c(C)c(CCNC(=O)NC3CCCCC3)c2c1 | -9.79 |  | 
CCN1C(=O)[C@H]2[C@@H](c3ccc(C)cc3)N3C(=O)N(c4cccc(F)c4)C(=O)[C@@]3(Cc3ccc(Cl)cc3)[C@H]2C1=O |  | 20.6 µM [rising, single point] | 
Cc1ccc(Cl)cc1NC(=S)N(CCCN1CCOCC1)Cc1ccccn1 | -23.8 | 4.11 µM [falling, full curve, poor fit] | 
CCN(CC)CCOc1ccc2c(c1)C(=NNC(=O)c1ccccn1)c1cc(OCCN(CC)CC)ccc1-2 | -60.2 | 20.6 µM [falling, partial curve] | 29.1 µM [falling, single point]
COc1cc(SC)ccc1C(=O)NC1CCCc2ccccc21 (centres undefined) | 11.5 | 29.1 µM [falling, single point] | 
O=C(COC(=O)C1CCN(c2ccc(C(F)(F)F)cn2)CC1)Nc1ncc(Cl)cc1Cl | -7.37 | 0.092 µM [rising, full curve, poor fit] | 
CC(=O)c1ccc(NC(=O)/C=C/c2ccc(C)cc2)cc1 | 7.79 | 10.3 µM [falling, partial curve] | 
CC(=O)Nc1cccc(/C(C)=N/Nc2nc3ccccc3s2)c1 |  |  | 6.51 µM [rising, single point]
CCOP(=O)(OCC)C(Nc1ccccc1)c1ccccc1C(F)(F)F (centres undefined) | 5.98 |  | 
CC(=O)Nc1ccc(/C=N\NC(=O)CNS(=O)(=O)c2ccc([N+](=O)[O-])cc2)cc1 | 4.51 | 20.6 µM [rising, single point] | 
Cc1oc(-c2ccccc2F)nc1CN1CCC(C(=O)NC2CCCc3ccccc32)CC1 (centres undefined) | 9.54 |  | 
CCOc1cc(C(=O)NC(C)Cc2cccs2)cc(OCC)c1OCC (centres undefined) | 90.9 |  | 29.1 µM [rising, single point]
Cc1c2cnn(CC(=O)NCCCN3CCCCC3C)c(=O)c2c(C)n1Cc1ccccc1 (centres undefined) | 30.3 |  | 
O=C(c1sc2ccccc2c1Cl)N(Cc1ccco1)C1CCS(=O)(=O)C1 (centres undefined) | 93.7 |  | 18.4 µM [rising, single point]
CCN(c1ccccc1)S(=O)(=O)c1ccc(C(=O)N(C)CCc2ccc(OC)c(OC)c2)cc1 | 17.3 | 14.6 µM [falling, partial curve] | 
CCC(Sc1nc(N)cc(=O)[nH]1)C(=O)NC(C(=O)OC)c1ccccc1 (centres undefined) |  | 0.58 µM [falling, single point] | 
Cc1cc(NC(=O)c2cc3ccccc3o2)cc(C)c1OCC(=O)N1CCOCC1 |  | 0.58 µM [rising, single point] | 
Nc1cc(C(=O)O)c(N)c2c1C(=O)c1ccccc1C2=O | 1.91 | 11.6 µM [rising, partial curve] | 
Cc1nc2ccccc2c2oc(C(=O)N3CCC(C)CC3)cc12 | 6.27 | 29.1 µM [falling, single point] | 

SMILES | cell number change [%] | AC50 [1] | AC50 [2]
COc1cccc(C(=O)N2CCN(S(=O)(=O)Cc3ccccc3)CC2)c1OC | -19 | 9.2 µM [falling, partial curve] | 
COc1ccc(N(CC(=O)NC2CCCCC2C)S(=O)(=O)c2c(C)nn(C)c2C)cc1 (centres undefined) | 2.59 |  | 
CC(C)(C)c1ccc(C(=O)CC(Sc2ccc(Cl)cc2)C(=O)O)cc1 (centres undefined) | -52.4 | 0.00461 µM [falling, full curve, poor fit] | 0.058 µM [falling, full curve, poor fit]
COc1ccc(CCN(C)C(=S)Nc2cccc(C)c2)cc1OC | 23.9 |  | 
COc1cccc(OC)c1C(=O)NC(=S)NCc1ccccc1 | 20.7 |  | 6.51 µM [rising, single point]
CCCN(CCC)C(=O)CCS(=O)(=O)c1cccc2nsnc12 | -14.6 | 0.651 µM [falling, single point] | 
COc1ccc(NS(=O)(=O)c2cc(NC(=O)/C=C/c3cccs3)ccc2N2CCOCC2)cc1 | -3.45 | 0.058 µM [rising, full curve, poor fit] | 
COc1ccc(CC(=O)Nc2ccc(OC)c(NC(=O)c3ccco3)c2)cc1 | 118 | 0.58 µM [rising, single point] | 0.082 µM [rising, single point]
Cc1ccccc1-c1nnc(SCC(=O)NCc2ccc3c(c2)OCO3)n1C | 59.5 |  | 16.4 µM [rising, partial curve]
CCOc1ccc(NC(=O)NNC(=O)c2ccc3ccccc3c2O)cc1 |  | 8.91 µM [rising, full curve, poor fit] | 
O=C(NC(=S)NNC(=O)c1ccccc1O)c1ccc(F)cc1 | -20.8 | 29.1 µM [falling, single point] | 
CC(C)N(C(=O)COC(=O)c1cncc(Br)c1)C(C)C | -32.9 |  | 
COc1ccc(Nc2nc(N3CCCCC3)nc3ccccc23)c(OC)c1 | -57.3 | 1.3 µM [rising, partial curve] | 
CC(=O)Nc1ccc(/C=C/c2nc(-c3ccccc3O)n[nH]2)cc1 | -57.5 | 18.4 µM [falling, single point] | 20.6 µM [falling, single point]
COc1cc2c(cc1OC)-c1nnc(-c3ccco3)n1C1(CCCC1)C2 | -23.6 | 8.2 µM [falling, partial curve, poor fit] | 
Cc1cc(C)n2nc[n+](C)c2n1 | 45.4 |  | 
C=CCn1cccc(C(=O)Nc2ccc(OCC)cc2)c1=O |  | 6.51 µM [rising, single point] | 3.66 µM [rising, partial curve]
CCOC(=O)c1sc(-c2ccc(OC)cc2)cc1NC(C)=O | -44.5 |  | 18.4 µM [falling, single point]
CCC(=O)OC1CC(C)N(C(=O)c2ccccc2)c2ccc(C)cc21 (centres undefined) |  |  | 0.231 µM [rising, partial curve, poor fit]
O=C(CCl)N1CCN2C(=O)c3ccccc3C12c1ccc(Cl)cc1 (centres undefined) | -58 | 6.51 µM [falling, single point] | 6.51 µM [falling, partial curve, poor fit]

SMILES | cell number change [%] | AC50 [1] | AC50 [2]
O=c1c2ccccc2ncn1CCOCCOc1ccc([N+](=O)[O-])cc1 |  | 1.84 µM [falling, partial curve] | 4.11 µM [falling, single point]
Cc1ccc(NC(=S)NC(=O)Cc2ccccc2)c(O)c1 |  | 3.66 µM [rising, full curve] | 
Cc1ccccc1-n1nc(SCC(=O)O)sc1=S | -33.3 |  | 
CCn1c(CNC(=O)c2cccnc2)cc2ccccc21 | -6.04 | 6.51 µM [rising, single point] | 
CCCCC(NC(=O)Cc1c(C)c2cc3c4c(oc3cc2oc1=O)CCCC4)C(=O)O (centres undefined) | 3.78 | 6.51 µM [falling, partial curve, poor fit] | 
CC1CCCCC1NC(=S)Nc1ccc(Cl)cc1Cl (centres undefined) | -32.3 |  | 
CCOc1ccc2c(c1)OC(c1ccccc1)(C(F)(F)F)NC2=O (centres undefined) | 24.3 | 0.58 µM [rising, single point] | 0.116 µM [rising, full curve, poor fit]
CCOc1ccccc1NC(=O)C(CC)Sc1nc2ccsc2c(=O)n1CCC(=O)O (centres undefined) | -38.4 | 23.1 µM [falling, partial curve] | 20.6 µM [falling, single point]
CCOc1ccc(C(N)=O)cc1OC | -61.1 |  | 32.6 µM [falling, single point]
COc1ccc(-c2nc3ccccn3c2NC2CCCCC2)cc1SC1CCCCC1 | -62 | 29.1 µM [falling, single point] | 23.1 µM [falling, single point]
FC(F)Sc1ccc(NC(=S)NCC2CCCCC2)cc1 | -38 | 20.6 µM [falling, single point] | 1.64 µM [falling, partial curve]
O=C(C1CCCCC1)N(Cc1ccccc1)c1ccccn1 | 8.43 | 16.4 µM [rising, single point] | 
CC1(C)CC(NC(=O)c2cccc(S(=O)(=O)N(Cc3ccccc3)c3ccccc3)c2)CC(C)(C)N1 | 0.776 | 0.58 µM [falling, partial curve] | 
CNCc1ccccc1Sc1cccc(O)c1 | 2.02 | 0.082 µM [falling, full curve, poor fit] | 0.116 µM [falling, partial curve, poor fit]
CCCCNS(=O)(=O)c1ccc2nc(SCC(=O)Nc3cc(C)cc(C)c3)[nH]c2c1 | 17.9 | 0.116 µM [falling, partial curve, poor fit] | 
CCOc1ccc2nc(SC(C)C(N)=O)[nH]c2c1 (centres undefined) |  | 7.31 µM [falling, partial curve, poor fit] | 
CCCCCCc1c(O)nc(SCC(=O)O)[nH]c1=O | 14.6 | 6.51 µM [rising, single point] | 6.51 µM [rising, single point]
O=C(NC12CC3CC(CC(C3)C1)C2)c1cc2nc(-c3ccco3)cc(C(F)(F)F)n2n1 | 68.6 |  | 18.4 µM [rising, partial curve]
CN1/C(=C\C=N\NC(=O)c2ccccc2Br)C(C)(C)c2ccccc21 | 1.19 | 2.06 µM [rising, partial curve] | 6.51 µM [falling, partial curve, poor fit]
Cc1c(-n2c(=O)n(Cc3ccccc3)c(=O)c3[nH]cnc32)cccc1S(C)=O (centres undefined) | -19.4 | 0.58 µM [falling, single point] | 
